Patent US20190352420A1 (Boehringer Ingelheim, published 2019)
These are yes or no findings as the source states them, for the method shown. Some binding calls cover weakened binding; strength is not graded here.

T1: CD73 protein construct for crystallography (human) (UniProt P21589)
T1 sequence: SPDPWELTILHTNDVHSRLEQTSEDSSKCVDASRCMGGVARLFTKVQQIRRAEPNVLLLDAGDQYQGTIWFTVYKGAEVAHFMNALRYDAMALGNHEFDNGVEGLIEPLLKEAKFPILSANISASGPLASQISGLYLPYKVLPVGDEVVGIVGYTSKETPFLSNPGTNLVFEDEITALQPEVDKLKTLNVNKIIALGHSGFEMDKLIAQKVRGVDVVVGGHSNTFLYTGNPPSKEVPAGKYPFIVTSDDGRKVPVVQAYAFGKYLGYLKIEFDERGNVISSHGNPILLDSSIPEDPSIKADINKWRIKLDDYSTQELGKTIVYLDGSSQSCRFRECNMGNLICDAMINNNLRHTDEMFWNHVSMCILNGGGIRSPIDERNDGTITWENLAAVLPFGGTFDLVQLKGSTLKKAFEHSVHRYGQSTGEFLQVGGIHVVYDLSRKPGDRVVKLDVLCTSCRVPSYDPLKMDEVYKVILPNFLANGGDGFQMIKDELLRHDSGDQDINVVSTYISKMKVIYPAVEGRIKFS

T2: mouse CD73 (mouse, UniProt Q61503 29-551, limits assumed)
T2 construct: also called murine CD73
T2 sequence (looked up): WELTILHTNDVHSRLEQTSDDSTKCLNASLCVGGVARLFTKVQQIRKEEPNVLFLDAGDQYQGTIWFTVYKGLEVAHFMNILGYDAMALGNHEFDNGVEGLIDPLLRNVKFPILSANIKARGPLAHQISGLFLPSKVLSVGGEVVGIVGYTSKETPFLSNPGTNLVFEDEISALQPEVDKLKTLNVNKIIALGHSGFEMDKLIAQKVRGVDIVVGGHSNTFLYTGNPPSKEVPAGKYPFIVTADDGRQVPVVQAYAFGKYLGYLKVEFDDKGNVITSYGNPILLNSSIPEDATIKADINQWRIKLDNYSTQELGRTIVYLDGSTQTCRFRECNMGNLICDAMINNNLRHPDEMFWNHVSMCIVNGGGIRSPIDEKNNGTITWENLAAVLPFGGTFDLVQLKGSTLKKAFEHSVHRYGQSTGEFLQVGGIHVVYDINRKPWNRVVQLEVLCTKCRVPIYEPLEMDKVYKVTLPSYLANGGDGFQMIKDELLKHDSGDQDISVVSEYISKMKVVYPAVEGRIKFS


biological target: T1, CD73 protein construct for crystallography (human); assay: complex formation, gel filtration and co-crystallisation

Row | binding | Binder
1 | binds | Fab fragment of an anti-CD73 antibody according to the invention (Fab, V domains shown) VH: QVQLVQSGAEVKKPGDSVKVSCKASGYTFTTYWMHWVRQAPGQGLEWMGAIYPGLSDTTYNQKFKGKVTMTRDTSTSTVYMKLSSLRSEDTAVYYCARLLDYAMDYWGQGTLVTVSS VL: DIQMTQSPSSLSASVGDRVTITCRASQDIRSYLNWHQQKPGKAPKLLIWYTSRLHSGVPSRFSGSGSGTDYTLTISSLQPEDFATYFCQQGETLPWTFGQGTKLEIK

biological target: T2, mouse CD73; assay: SPR

Row | Binder | binding
2 | C2 (antibody, human IgG1, kappa, L234A L235A, V domains shown, Humanized monoclonal antibody; also called anti-CD73 antibody C2) VH: QVQLVQSGAEVKKPGDSVKVSCKASGYTFTTYWMHWVRQAPGQGLEWMGAIYPGLSDTTYSQKFKGKVTMTRDTSTSTVYMKLSSLRSEDTAVYYCARLLDYAMDYWGQGTLVTVSS VL: DIQMTQSPSSLSASVGDRVTITCRASQDIRSYLNWHQQKPGKAPKLLIWYTSRLHSGVPSRFSGSGSGTDYTLTISSLEPEDFATYFCQQGETLPWTFGQGTKLEIKR | binds
3 | C3 (antibody, human IgG1, kappa, L234A L235A, V domains shown, Humanized monoclonal antibody; also called anti-CD73 antibody C3) VH: QVQLVQSGAEVKKPGDSVKVSCKASGYTFTTYWMHWVRQAPGQGLEWMGAIYPGLSDTTYSQKFKGKVTMTRDTSTSTVYMKLSSLRSEDTAVYYCARLLDYAMDYWGQGTLVTVSS VL: DIQMTQSPSSLSASVGDRVTITCRASQDIRSYLNWHQQKPGKAPKLLIWYTSRLHSGVPSRFSGSGSGTDYTLTISSLQPEDFATYFCQQGETLPWTFGQGTKLEIKR | binds
4 | C6 (antibody, human IgG1, kappa, L234A L235A, V domains shown, Humanized monoclonal antibody; also called anti-CD73 antibody C6) VH: QVQLVQSGAEVKKPGDSVKVSCKASGYTFTTYWMHWVRQAPGQGLEWMGAIYPGNSDTTYNQKFKGKVTMTRDTSTSTVYMKLSSLRSEDTAVYYCARLLDYAMDYWGQGTLVTVSS VL: DIQMTQSPSSLSASVGDRVTITCRASQDIRNYLNWHQQKPGKAPKLLIWYTSRLHSGVPSRFSGSGSGTDYTLTISSLQPEDFATYFCQQGNTLPWTFGQGTKLEIKR | binds
5 | C4 (antibody, human IgG1, kappa, L234A L235A, V domains shown, Humanized monoclonal antibody; also called C04; inventive anti-CD73 antibody C4) VH: QVQLVQSGAEVKKPGDSVKVSCKASGYTFTTYWMHWVRQAPGQGLEWMGAIYPGLSDTTYNQKFKGKVTMTRDTSTSTVYMKLSSLRSEDTAVYYCARLLDYAMDYWGQGTLVTVSS VL: DIQMTQSPSSLSASVGDRVTITCRASQDIRSYLNWHQQKPGKAPKLLIWYTSRLHSGVPSRFSGSGSGTDYTLTISSLQPEDFATYFCQQGETLPWTFGQGTKLEIKR | binds
6 | C5 (antibody, human IgG1, kappa, L234A L235A, V domains shown, Humanized monoclonal antibody; also called anti-CD73 antibody C5) VH: QVQLVQSGAEVKKPGDSVKVSCKASGYTFTTYWMHWVRQAPGQGLEWMGAIYPGNSDTTYNQKFKGKVTMTRDTSTSTVYMKLSSLRSEDTAVYYCARLLDYAMDYWGQGTLVTVSS VL: DIQMTQSPSSLSASVGDRVTITCRASQDIRSYLNWHQQKPGKAPKLLIWYTSRLHSGVPSRFSGSGSGTDYTLTISSLEPEDFATYFCQQGETLPWTFGQGTKLEIKR | binds
7 | C1 (antibody, human IgG1, kappa, L234A L235A, V domains shown, Humanized monoclonal antibody; also called anti-CD73 antibody C1) VH: QVQLVQSGAEVKKPGDSVKVSCKASGYTFTTYWMHWVRQAPGQGLEWMGAIYPGFSDTTYSQKFKGKVTMTRDTSTSTVYMKLSSLRSEDTAVYYCARLLDYAMDYWGQGTLVTVSS VL: DIQMTQSPSSLSASVGDRVTITCRASQDIRSYLNWHQQKPGKAPKLLIWYTSRLHSGVPSRFSGSGSGTDYTLTISSLEPEDFATYFCQQGETLPWTFGQGTKLEIKR | binds
